1 molecule from paper PMC8906119 can be followed below.

No constants are given. Whether binding was seen depends on the method and setting. Binding seen in cells or lysates may run through a third protein. Some entries that bind do so weakly or less than the wild type.

For the test, the target named is WW domain-containing E3 ubiquitin protein ligase1 (WWP1) (human (endogenous in HuCCT1, HCCC-9810, RBE)) (UniProt Q9H0M0). Briefly: co-IP; lysates of HuCCT1, HCCC-9810 and RBE cells in Pierce IP Lysis Buffer, specific antibodies overnight at 4 °C, Protein A/G Magnetic Beads, western blotting.

B1: Nedd4 family interacting protein1 (NDFIP1) (protein, UniProt Q9BT67 1-221)
chain: MALALAALAAVEPACGSRYQQLQNEEESGEPEQAAGDAPPPYSSISAESAAYFDYKDESGFPKPPSYNVATTLPSYDEAERTKAEATIPLVPGRDEDFVGRDDFDDADQLRIGNDGIFMLTFFMAFLFNWIGFFLSFCLTTSAAGRYGAISGFGLSLIKWILIVRFSTYFPGYFDGQYWLWWVFLVLGFLLFLRGFINYAKVRKMPETFSNLPRTRVLFIY
In the case of B1, the binding result is recorded as “binds”.
